# Laboratory results: PubChem BioAssay AID2685 (National Center for Advancing Translational Sciences (NCATS), 2010)
# This is one part of the list. The main result of the screen is listed elsewhere. These columns were measured beside it and carry no call. The list favours compounds with an active or inconclusive main result. Words in brackets tell the shape of the fitted curve; partial curves, single points and poor fits give uncertain potencies.
# Experiment: qHTS Assay for Lipid Storage Modulators in Drosophila S3 Cells;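 as to cell number change: cells counted by Cell Tracker Red CMTPX staining in the red channel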
# Settings: BODIPY lipid droplet fluorescence, 18-24 h; for cell number change: measured here: cell count max response, cells fed with added oleic acid
# Summary of the method: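 Drosophila S3 cells got compounds at several concentrations plus oleic acid (400 uM solution). Laser-scanning cytometry with 488 nm excitation read lipid droplets at 500-530 nm and cells at 575-640 nm. Percent activity was relative to 20 uM Triacsin C.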
# [1] = measured here: lipid fluorescence (Fed channel) AC50, cells fed with added oleic acid
# [2] = measured here: cell number channel AC50, cells fed with added oleic acid
Compound,cell number change [%],AC50 [1],AC50 [2]
COc1ccc(S(=O)(=O)N(C)C2CCN(C)CC2)cc1,0.613,"29.1 µM [falling, single point]",–
COC(=O)c1c(NC(=O)c2cccs2)sc2c1CCCC2,-24.1,"0.184 µM [falling, full curve, poor fit]","2.31 µM [falling, partial curve, poor fit]"
CN1CCN(C2=Cc3cc(Cl)ccc3Sc3cc(F)ccc32)CC1,-79.5,–,"7.31 µM [falling, partial curve]"
CCCCCCCC(=O)Nc1cc(C(=O)NCc2ccc(C)cc2)ccc1N1CCC2(CC1)CC(c1cccc(Br)c1)=NO2,-11.9,"0.651 µM [falling, full curve, poor fit]",–
Cc1ccc(F)cc1NC(=O)CCC(=O)c1cccs1,24,"0.00517 µM [rising, full curve, poor fit]",–
CC(C)COC(=O)NCCCOC(=O)Nc1ccccc1,-32.6,"1.3 µM [falling, partial curve]","9.2 µM [falling, single point]"
CC1CCc2nn(CC(=O)NCCCN3CCCCC3)cc2C1 (centres undefined),-9.22,"0.0651 µM [falling, full curve, poor fit]",–
Cc1ccc(-n2ncc3c2CCCC3NC(=O)CCc2c(C)noc2C)cc1C (centres undefined),-22.3,–,"0.651 µM [rising, single point]"
O=C(c1cccnc1)c1cccnc1,30,"29.1 µM [rising, single point]","23.1 µM [rising, single point]"
CC(C)N(CC(N)=O)C(=O)c1sc2cc(F)ccc2c1Cl,-33.9,"0.651 µM [falling, full curve]","0.82 µM [falling, full curve, poor fit]"
CCc1cccc2c(C(=O)CCl)c[nH]c12,-38.2,"20.6 µM [falling, partial curve]","16.4 µM [falling, single point]"
COc1ccc(Nc2nc(C)cc(C)c2C#N)cc1,-1.02,"0.184 µM [rising, full curve, poor fit]",–
CC(C)CC[n+]1ccccc1/C=C/c1ccc(N(C)C)cc1,-98.6,"4.61 µM [falling, full curve]","5.8 µM [falling, full curve]"
CCC(C)(C)NC(=O)C(c1ccc(OC)cc1)N(Cc1ccco1)C(=O)CCC(=O)Nc1cc(C)on1 (centres undefined),-36.8,"16.4 µM [falling, partial curve]","16.4 µM [falling, partial curve]"
[N-]=[N+]=NC[C@H](c1ccccc1)N1CCN(Cc2ccccc2)CCC1=O,-7.77,"29.1 µM [falling, single point]",–
CCOc1ccc(NCc2cccn2-c2nnc(N3CCC(C(=O)NCCCN4CCCCC4C)CC3)s2)cc1 (centres undefined),17.4,"0.411 µM [rising, full curve, poor fit]",–
CC(C)(C)OC(=O)N1CCC(NC(=O)c2nc[nH]c2C(=O)N2CCc3ccccc3C2)CC1,4.52,"0.164 µM [rising, full curve]",–

Compound,cell number change [%],AC50 [1],AC50 [2]
COC(=O)c1ccc(/C=N/Nc2nc(C)c(C)s2)cc1,-17.7,"11.6 µM [falling, single point]",–
COc1ccccc1-n1cnnc1SCC(=O)Nc1nc(C)c(Cl)cc1Cl,–,"6.51 µM [rising, single point]","3.26 µM [rising, single point]"
Cc1cccc([C@@H]2[C@@H]3C(=O)N(Cc4ccccc4)C(=O)[C@@H]3[C@]3(Cc4ccccc4)C(=O)N(c4cccc(F)c4)C(=O)N23)c1,-8.51,"29.1 µM [rising, single point]",–
Cc1cc(C)c(S(=O)(=O)Nc2ccccn2)c(C)c1,0.829,–,–
O=C(CSc1nncc2ccccc12)Nc1ccc(C(=O)O)cc1,11.5,"29.1 µM [rising, single point]","4.11 µM [rising, single point]"
O=C(Nc1ccc(F)c(Cl)c1)c1ccccc1,43.4,"14.6 µM [rising, partial curve]","18.4 µM [rising, single point]"
COc1ccccc1C(=O)c1cc2ccc(O)cc2oc1=O,–,"25.9 µM [rising, partial curve, poor fit]",–
O=C(c1ccc(Cl)cc1)N1CCn2c1nc1ccccc12,39.3,"7.31 µM [rising, partial curve, poor fit]","0.103 µM [rising, full curve, poor fit]"
CC1CCc2c(sc3nc(CN4CCOCC4)nc(NS(=O)(=O)c4cccc([N+](=O)[O-])c4)c23)C1 (centres undefined),–,"6.51 µM [rising, partial curve, poor fit]",–
O=C(Nc1ccc(C(F)(F)F)cc1)c1cccnc1N1CCOCC1,–,"6.51 µM [rising, single point]",–
CCN1CCN(C(=S)Nc2sc(C)c(-c3ccccc3)c2C(=O)OC)CC1,-7.37,"4.11 µM [rising, full curve]",–
CN1CCN(NC(=S)NC2CCCC2)CC1,-28.9,–,–
CC1CCc2c(sc(/N=C/c3cccnc3)c2C(N)=O)C1 (centres undefined),6.67,"1.64 µM [falling, partial curve, poor fit]",–
CC1(C)CC(=O)C2=C(C1)OC(N)=C(C#N)C2C#Cc1ccccc1 (centres undefined),12.6,"2.06 µM [rising, partial curve]",–
Cc1nc(N2CCN(C(=O)c3cccs3)CC2)c2c3c(sc2n1)CCCC3,-30.5,"29.1 µM [rising, single point]",–
O=C(N/N=C\c1ccc(COc2ccc([N+](=O)[O-])cc2)o1)c1cccc(Cl)c1,-34.6,"11.6 µM [falling, partial curve]","3.66 µM [falling, full curve, poor fit]"
O=C(Nc1ccc2oc(-c3ccccc3F)nc2c1)c1ccc([N+](=O)[O-])o1,-1.65,"0.92 µM [falling, full curve, poor fit]",–

# A few values from above.
# O=C(Nc1ccc(C(F)(F)F)cc1)c1cccnc1N1CCOCC1 – AC50 [1]: 6.51 µM [rising, single point]
# O=C(CSc1nncc2ccccc12)Nc1ccc(C(=O)O)cc1 – AC50 [1]: 29.1 µM [rising, single point]
